Source: publication PMC11758394, “VCP downstream metabolite glycerol-3-phosphate (G3P) inhibits CD8^+T cells function in the HCC microenvironment” (Signal Transduction and Targeted Therapy, 2025)
Results are given in words; binding and its absence hold for the method and conditions named. For part of these data: Binding seen in cells or lysates may run through a third protein. Some binding calls cover weakened binding; strength is not graded here. For part of these data: Sequences can lack the tags named with a protein.

Protein sequences, listed by entry. Tags and fused reporters are not part of them. Chains listed by the source or under a name are the forms on record and can include a tag or linker. Residues count along the entry.
FLAG-tagged D1 domain of VCP (208-470 aa) (P55072, residues 208-470): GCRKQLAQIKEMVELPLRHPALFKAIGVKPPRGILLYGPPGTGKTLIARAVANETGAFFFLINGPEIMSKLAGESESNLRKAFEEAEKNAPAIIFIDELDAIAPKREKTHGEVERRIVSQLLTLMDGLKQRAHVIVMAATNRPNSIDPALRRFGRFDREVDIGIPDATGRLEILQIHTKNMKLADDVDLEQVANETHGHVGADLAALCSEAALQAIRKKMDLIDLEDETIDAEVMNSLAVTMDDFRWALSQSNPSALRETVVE

What was measured:
[1] = target: T1, HA-tagged GPD1L fragment 192-351 aa (UniProt Q8N335); assay: co-IP; HCCLM3 or HEK293T (293T) cells co-transfected with FLAG- and HA-tagged plasmids for 48 h; lysis in 20 mM HEPES pH 7.4, 150 mM NaCl, 1 mM EDTA, 0.1% Triton X-100; FLAG or HA magnetic beads, 4 °C, 4 h; immunoblot
T1 sequence: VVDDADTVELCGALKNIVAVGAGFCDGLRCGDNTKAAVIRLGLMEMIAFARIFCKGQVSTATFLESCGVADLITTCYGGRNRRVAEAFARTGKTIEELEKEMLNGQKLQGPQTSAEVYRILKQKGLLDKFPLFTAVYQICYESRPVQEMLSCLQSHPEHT

[2] = target: FLAG-tagged D1 domain of VCP (208-470 aa) (UniProt P55072); assay: as above
[3] = target: FLAG-VCP (valosin-containing protein) (UniProt P55072); assay: as above
[4] = target: HA-VCP (UniProt P55072); assay: as above
[5] = target: endogenous VCP (human (endogenous in HCCLM3)) (UniProt P55072); assay: co-IP; HCCLM3 cell lysates immunoprecipitated with control IgG or anti-VCP antibodies; immunoprecipitates blotted
[6] = target: GST-VCP fusion protein (UniProt P55072); assay: pull-down; GST pull-down: GST fusion protein (10 μg) and His fusion protein (10-20 μg) mixed in 50 mM Tris-HCl pH 7.4, 150 mM NaCl, 1 mM EDTA, 5% glycerol, 0.1% Triton X-100, 1 mM DTT, 4 °C, 4 h; immunoblot; both purified

“FLAG-VCP (valosin-containing protein) (from UniProt P55072 1-806)” was tested, and the binding [1] was “binds”.

B1: HA-GPD1L (glycerol-3-phosphate dehydrogenase 1-like protein) (protein, UniProt Q8N335 1-351)
chain: MAAAPLKVCIVGSGNWGSAVAKIIGNNVKKLQKFASTVKMWVFEETVNGRKLTDIINNDHENVKYLPGHKLPENVVAMSNLSEAVQDADLLVFVIPHQFIHRICDEITGRVPKKALGITLIKGIDEGPEGLKLISDIIREKMGIDISVLMGANIANEVAAEKFCETTIGSKVMENGLLFKELLQTPNFRITVVDDADTVELCGALKNIVAVGAGFCDGLRCGDNTKAAVIRLGLMEMIAFARIFCKGQVSTATFLESCGVADLITTCYGGRNRRVAEAFARTGKTIEELEKEMLNGQKLQGPQTSAEVYRILKQKGLLDKFPLFTAVYQICYESRPVQEMLSCLQSHPEHT
In the case of B1, the binding [2] is reported as “binds” and the binding [3] is reported as “binds”.

B2: FLAG-GPD1L (protein, UniProt Q8N335 1-351)
chain: B1 chain
With B2 the binding [4] was “binds”.

B3: endogenous GPD1L (protein, UniProt Q8N335 1-351)
chain: B1 chain
For B3, the binding [5] was “binds”.

B4: His-GPD1L protein (protein, UniProt Q8N335 1-351)
chain: B1 chain
In the case of B4, the binding [6] is reported as “binds”.
